Measured values from publication doi:10.1101/2022.07.26.501605.
Results are given in words; binding and its absence hold for the method and conditions named. For part of these data: Binding seen in cells or lysates may run through a third protein. Some results given as binding are weak or reduced against the parent protein; the word gives no strength. For part of these data: Sequences can lack the tags named with a protein. Values belong to the binder of their own block, whether it stands above or below them.

Assays:
[1] = target: T1, AlaS, bacterial two-hybrid fusion (B. subtilis) (UniProt O34526); test: two-hybrid
T1 sequence: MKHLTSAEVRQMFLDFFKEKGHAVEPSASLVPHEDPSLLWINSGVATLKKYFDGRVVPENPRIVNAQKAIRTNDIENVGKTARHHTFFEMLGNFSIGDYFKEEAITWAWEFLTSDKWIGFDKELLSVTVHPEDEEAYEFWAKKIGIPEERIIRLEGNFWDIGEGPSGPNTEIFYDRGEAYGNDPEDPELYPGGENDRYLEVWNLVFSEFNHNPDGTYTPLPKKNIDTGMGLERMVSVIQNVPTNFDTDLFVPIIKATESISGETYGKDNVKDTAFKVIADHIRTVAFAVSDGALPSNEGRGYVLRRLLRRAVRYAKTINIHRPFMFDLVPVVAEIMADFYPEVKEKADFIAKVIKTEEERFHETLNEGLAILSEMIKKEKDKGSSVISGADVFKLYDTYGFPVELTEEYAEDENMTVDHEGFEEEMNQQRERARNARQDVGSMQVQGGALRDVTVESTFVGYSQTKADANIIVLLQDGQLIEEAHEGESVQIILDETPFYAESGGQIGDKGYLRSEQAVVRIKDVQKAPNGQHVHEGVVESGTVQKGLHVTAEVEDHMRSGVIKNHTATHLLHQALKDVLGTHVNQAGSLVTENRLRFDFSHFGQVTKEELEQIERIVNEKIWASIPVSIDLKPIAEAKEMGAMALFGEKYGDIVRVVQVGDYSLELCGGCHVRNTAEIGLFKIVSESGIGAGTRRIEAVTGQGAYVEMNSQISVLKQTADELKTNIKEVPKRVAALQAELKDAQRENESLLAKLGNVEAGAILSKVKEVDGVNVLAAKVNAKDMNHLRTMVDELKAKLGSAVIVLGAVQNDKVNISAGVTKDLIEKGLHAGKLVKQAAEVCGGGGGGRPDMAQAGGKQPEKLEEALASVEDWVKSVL

cross-linking = substrate: T2, B subunit of the glutamyl-tRNA amidotransferase (GatB) (B. subtilis (endogenous in strain 168)) (UniProt O30509); test: cross-linking
T2 sequence: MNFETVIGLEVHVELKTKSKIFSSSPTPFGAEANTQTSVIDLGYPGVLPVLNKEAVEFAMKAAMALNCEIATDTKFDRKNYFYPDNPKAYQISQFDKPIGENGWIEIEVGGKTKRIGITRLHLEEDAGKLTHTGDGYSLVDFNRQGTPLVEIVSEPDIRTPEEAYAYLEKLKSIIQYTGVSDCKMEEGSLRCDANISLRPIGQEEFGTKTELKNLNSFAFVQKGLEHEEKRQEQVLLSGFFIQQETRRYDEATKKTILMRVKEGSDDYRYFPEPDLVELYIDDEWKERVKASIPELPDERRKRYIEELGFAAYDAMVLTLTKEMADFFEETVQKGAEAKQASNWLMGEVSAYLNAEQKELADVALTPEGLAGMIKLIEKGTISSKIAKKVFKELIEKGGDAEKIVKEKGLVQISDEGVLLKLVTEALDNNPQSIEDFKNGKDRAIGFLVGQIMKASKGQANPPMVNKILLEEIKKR

[2] = target: T3, OpuAB (B. subtilis (endogenous in strain 168)) (UniProt P46921); test: cross-linking
T3 sequence: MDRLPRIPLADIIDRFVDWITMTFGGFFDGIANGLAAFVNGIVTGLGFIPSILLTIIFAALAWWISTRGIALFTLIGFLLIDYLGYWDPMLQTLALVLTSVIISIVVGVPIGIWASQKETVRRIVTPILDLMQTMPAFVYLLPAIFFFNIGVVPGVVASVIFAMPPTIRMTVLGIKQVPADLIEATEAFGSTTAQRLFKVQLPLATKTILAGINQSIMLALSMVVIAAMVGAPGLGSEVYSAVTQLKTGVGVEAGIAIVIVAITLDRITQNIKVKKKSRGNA

[3] = target: T4, PutC (B. subtilis (endogenous in strain 168)) (UniProt P94391); test: cross-linking
T4 sequence: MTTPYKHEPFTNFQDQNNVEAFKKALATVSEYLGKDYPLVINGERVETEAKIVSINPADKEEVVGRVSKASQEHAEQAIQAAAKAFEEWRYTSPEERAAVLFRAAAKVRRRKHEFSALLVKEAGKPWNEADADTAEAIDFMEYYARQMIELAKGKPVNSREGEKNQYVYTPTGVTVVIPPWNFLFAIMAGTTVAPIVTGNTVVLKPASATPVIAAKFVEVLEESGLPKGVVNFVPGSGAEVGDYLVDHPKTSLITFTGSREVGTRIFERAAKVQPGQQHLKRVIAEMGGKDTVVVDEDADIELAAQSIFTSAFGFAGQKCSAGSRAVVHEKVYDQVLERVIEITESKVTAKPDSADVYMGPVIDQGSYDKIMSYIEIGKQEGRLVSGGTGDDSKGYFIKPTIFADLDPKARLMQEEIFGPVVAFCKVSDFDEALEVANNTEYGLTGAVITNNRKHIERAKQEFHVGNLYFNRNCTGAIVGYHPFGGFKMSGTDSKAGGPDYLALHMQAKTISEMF

[4] = target: T5, YsdC (B. subtilis (endogenous in strain 168)) (UniProt P94521); test: cross-linking
T5 sequence: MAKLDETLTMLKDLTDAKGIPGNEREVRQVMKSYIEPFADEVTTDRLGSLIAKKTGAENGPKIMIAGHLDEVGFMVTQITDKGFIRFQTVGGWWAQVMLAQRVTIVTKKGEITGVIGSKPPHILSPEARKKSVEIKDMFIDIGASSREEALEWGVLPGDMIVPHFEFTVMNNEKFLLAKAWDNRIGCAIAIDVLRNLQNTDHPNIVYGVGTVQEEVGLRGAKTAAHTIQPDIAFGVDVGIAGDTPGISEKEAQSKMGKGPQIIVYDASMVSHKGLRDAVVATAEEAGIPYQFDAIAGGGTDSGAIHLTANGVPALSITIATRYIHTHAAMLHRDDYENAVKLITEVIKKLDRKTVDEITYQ

[5] = target: T6, LutB (B. subtilis (endogenous in strain 168)) (UniProt O07021); test: cross-linking
T6 sequence: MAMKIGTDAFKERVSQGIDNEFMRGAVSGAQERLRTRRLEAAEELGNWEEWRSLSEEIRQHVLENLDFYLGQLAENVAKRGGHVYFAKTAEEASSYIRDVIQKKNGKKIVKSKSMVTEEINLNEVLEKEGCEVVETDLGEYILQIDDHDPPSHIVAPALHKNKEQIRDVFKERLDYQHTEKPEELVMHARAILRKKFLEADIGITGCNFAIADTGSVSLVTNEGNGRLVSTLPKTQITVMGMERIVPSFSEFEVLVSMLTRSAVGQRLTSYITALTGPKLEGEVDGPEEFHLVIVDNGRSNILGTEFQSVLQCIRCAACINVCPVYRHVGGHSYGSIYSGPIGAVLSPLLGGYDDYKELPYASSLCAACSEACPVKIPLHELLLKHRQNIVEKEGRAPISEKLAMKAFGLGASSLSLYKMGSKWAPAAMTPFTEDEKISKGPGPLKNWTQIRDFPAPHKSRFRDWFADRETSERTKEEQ

binding (cross-linking): binds
B2: YtpR (protein, UniProt O34943 1-201)
chain: MNAFYNKEGVGDTLLISLQDVTREQLGYEKHGDVVKIFNNETKETTGFNIFNASSYLTIDENGPVALSETFVQDVNEILNRNGVEETLVVDLSPKFVVGYVESKEKHPNADKLSVCKVNVGEETLQIVCGAPNVDQGQKVVVAKVGAVMPSGLVIKDAELRGVPSSGMICSAKELDLPDAPAEKGILVLEGDYEAGDAFQF

binding [3]: binds
B4: RocA (enzyme, UniProt P39634 1-515)
chain: MTVTYAHEPFTDFTEAKNKTAFGESLAFVNTQLGKHYPLVINGEKIETDRKIISINPANKEEIIGYASTADQELAEKAMQAALQAFDSWKKQRPEHRANILFKAAAILRRRKHEFSSYLVKEAGKPWKEADADTAEAIDFLEFYARQMLKLKEGAPVKSRAGEVNQYHYEALGVGIVISPFNFPLAIMAGTAVAAIVTGNTILLKPADAAPVVAAKFVEVMEEAGLPNGVLNYIPGDGAEIGDFLVEHPKTRFVSFTGSRAVGCRIYERAAKVQPGQKWLKRVIAEMGGKDTVLVDKDADLDLAASSIVYSAFGYSGQKCSAGSRAVIHQDVYDEVVEKAVALTKTLTVGNPEDPDTYMGPVIHEASYNKVMKYIEIGKSEGKLLAGGEGDDSKGYFIQPTIFADVDENARLMQEEIFGPVVAICKARDFDHMLEIANNTEYGLTGALLTKNRAHIERAREDFHVGNLYFNRGCTGAIVGYQPFGGFNMSGTDSKAGGPDYLILHMQAKTTSEAF

binding [4]: binds
B5: YtoP (protein, UniProt O34924 1-357)
chain: MNQETKALFQTLTQLPGAPGNEHQVRAFMKQELAKYADDIVQDRLGSVFGVRRGAEDAPRIMVAGHMDEVGFMVTSITDNGLLRFQTLGGWWSQVLLAQRVEIQTDNGPVPGVISSIPPHLLTDAQRNRPMDIKNMMIDIGADDKEDAIKIGIRPGQQIVPVCPFTTMANEKKILSKAWDNRYGCGLSIELLKELHGKELPNTLYAGATVQEEVGLRGAQTASHMIKPDLFFALDASPANDMSGDKNEFGQLGKGFLLRILDRTTVMHRGMREFVLDMAETHDIPYQYFVSGGGTDAGKVHISNSGVPSAVIGICSRYIHTNATIIHIDDYAAAKEMLIKLVTACDKQTVDAIKENM

Continued, binder first:

B1: YozC, bacterial two-hybrid fusion (protein, UniProt O31848 1-67)
chain: MIHKNWLEKETIKKVKCVQTNAKKYIVNRVLTPGKEYEVKNETEEFLFVVDNTNKVGGYYKEYFEEM
binding [1]: binds

B3: OpuAA (protein, UniProt P46920 1-418)
chain: MSVDEKPIKIKVEKVSKIFGKQTKKAVQMLANGKTKKEILKATGSTVGVNQADFEVYDGEIFVIMGLSGSGKSTLVRMLNRLIEPTAGNIYIDGDMITNMSKDQLREVRRKKISMVFQKFALFPHRTILENTEYGLELQGVDKQERQQKALESLKLVGLEGFEHQYPDQLSGGMQQRVGLARALTNDPDILLMDEAFSALDPLIRKDMQDELLDLHDNVGKTIIFITHDLDEALRIGDRIVLMKDGNIVQIGTPEEILMNPSNEYVEKFVEDVDLSKVLTAGHIMKRAETVRIDKGPRVALTLMKNLGISSIYAVDKQKKLLGVIYASDAKKAAESDLSLQDILNTEFTTVPENTYLTEIFDVVSDANIPIAVVDEKQRMKGIVVRGALIGALAGNNEYINAEGTNEQTQDPSAQEVK
binding [2]: binds

B6: LutA (protein, UniProt O07020 1-238)
chain: MKVSLFVTCLVDMFQTNVGKATVELLERLGCEVDFPEGQICCGQPAYNSGYVHDAKKAMKRMIETFQDSEYVVSPSGSCTTMFREYPHLFQDDPKWADKAKKLADKTYELTDFIVNVLGVEDVGATLHTKATLHTSCHMTRLLGVRKEPMKLLSHVKGLQFTELPGKHNCCGFGGTFSVKMAQISEQMVDEKVECVEETGAEVLIGADCGCLMNIGGRLGRKDKNVKVMHIAEVLNSR
binding [5]: binds
